According to PMC8710834:
Construct, isoform or probe ends are uncertain for at least one entry. Negatives hold for the conditions tested.

Target: PtrERF9 (His-PtrERF9) (Poncirus trifoliata (L.) Raf.) (UniProt A0ACB8N348)
Assay: EMSA
Settings: EMSA: 5 mM MgCl2, 50 mM KCl, 10 mM EDTA, 2.5% glycerol, 50 ng/uL poly(dI-dC), 0.05% NP-40, 6.5% native PAGE, pH and temperature not stated, recombinant protein, protein details: His (vector pHMGWA)
[1] = shift reduced dose-dependently by unlabelled competitor

Sequence | binding result | binding result [1]
AGGACGGTGGCTGCTTTAGGTGGCTACATATAAATGTCTT (double strand) [mP2 probe] | no binding | –
CCATCCAATTCCAACGAGCCGCCAGCTTATAATAACAACA (double strand) [P1 probe (PtrGSTU17 promoter GCC-box)] | – | binds
CCATCCAATTCCAACGATCCTCCAGCTTATAATAACAACA (double strand) [mP1 probe] | no binding | –
AGGACGGTGGCTGCTTTAGGCGGCTACATATAAATGTCTT (double strand) [P2 probe (PtrACS1 promoter GCC-box)] | – | binds
